Laboratory results: PubChem BioAssay AID445 (National Center for Advancing Translational Sciences (NCATS), 2006)
This is one part of the list. The main result of the screen is listed elsewhere. These columns were measured beside it and carry no call. The list favours compounds with an active or inconclusive main result. The note in brackets gives the kind of curve behind each potency; many fits are weak.

Assay: IkB Signaling
Conditions: ABC-DLBCL IkBa-CBG/CBR dual luciferase ratio (green luciferase fused to IkBa over red control in OCI-Ly3 lymphoma cells), 4 h; measured here: control luc red channel unless noted
Method in brief: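 In this assay, an IκBα–CBG68 fusion accumulates when IKK-driven degradation is blocked; native CBR normalizes for cell number. OCI-Ly3 cells were treated 4 h with compound and doxycycline, then green and red light read after Chroma-Glo addition.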

Row | Compound | AC50
1 | CCOC(=O)c1ccc(NC(=O)C(CC)Sc2nncn3c2cc2oc(C)cc23)cc1 (stereo not drawn) | 12.6 µM [falling, partial curve]
2 | CC1(C)Cc2c(sc3nc(-c4cc5ccccc5o4)n(N)c(=O)c23)CO1 | 20 µM [falling, partial curve]
3 | COC(=O)c1c(-c2cccnc2)csc1NC(=O)c1cc(C)on1 | 25.1 µM [falling, partial curve]
4 | CCCCNc1nc2c(-c3cccc(Br)c3)nnn2c2ccccc12 | 1.58 µM [falling, full curve]
5 | CCOc1c(C(N)=O)c(-c2ccccc2)c2c(=O)[nH]c3ccccc3n12 | 0.126 µM [falling, full curve, poor fit]
6 | COc1ccc(OCCCn2c(C)nc3cc(C)c(C)cc32)cc1 | 25.1 µM [falling, partial curve]
7 | CCC1=C(c2ccc(C)cc2)S(=O)(=O)N=C1N1CCC(C(=O)NCCc2cccc(OC)c2)CC1 | 31.6 µM [falling, single point]
8 | CCOc1ccccc1OCCCCCc1c(C)n[nH]c1C | 15.8 µM [falling, partial curve]
9 | COC(=O)C1CCN(c2csc3ccc(C)cc3c2=O)CC1 | 15.8 µM [falling, partial curve]
10 | CCN(CCCNC(=O)c1ccc(Sc2ccc(Cl)cc2)c(NC(C)=O)c1)c1cccc(C)c1 | 25.1 µM [falling, partial curve]
11 | CCc1nn(CCCC(=O)NCc2ccc(OC)c(OC)c2)c(=O)c2cc3occc3n12 | 0.158 µM [rising, partial curve]
12 | Cc1ccc(C)c(NC(=O)CN(Cc2ccccc2)S(=O)(=O)c2ccc3nc(C)sc3c2)c1 | 25.1 µM [falling, single point]
13 | CCN(CC)c1ccc(-c2nc(-c3ccccn3)no2)cc1[N+](=O)[O-] | 1.58 µM [rising, full curve, poor fit]
14 | COc1cc(C2Oc3nc(SC)nnc3-c3ccccc3N2C(C)=O)cc(Cl)c1OC (stereo not drawn) | 20 µM [falling, partial curve]
15 | Cc1ccc(CNC(=O)CN2C(=O)COc3ccc(S(=O)(=O)N4CCC(C)CC4)cc32)cc1 | 25.1 µM [falling, single point]
16 | CCSc1nnc(NC(=O)c2cccc(OCc3c(C)noc3C)c2)s1 | 39.8 µM [falling, single point]
17 | CSc1cccc(NC(=O)c2ccc3c(c2)CCCN3S(C)(=O)=O)c1 | 20 µM [falling, partial curve]
18 | CCCCCCn1c(/C=C/c2ccccc2)nc2ccccc21 | 25.1 µM [falling, partial curve]

Rewritten in markdown: entries from further up

| Row | Compound | AC50 |
| --- | --- | --- |
| 10 | CCN(CCCNC(=O)c1ccc(Sc2ccc(Cl)cc2)c(NC(C)=O)c1)c1cccc(C)c1 | 25.1 µM [falling, partial curve] |
| 11 | CCc1nn(CCCC(=O)NCc2ccc(OC)c(OC)c2)c(=O)c2cc3occc3n12 | 0.158 µM [rising, partial curve] |
| 12 | Cc1ccc(C)c(NC(=O)CN(Cc2ccccc2)S(=O)(=O)c2ccc3nc(C)sc3c2)c1 | 25.1 µM [falling, single point] |
| 13 | CCN(CC)c1ccc(-c2nc(-c3ccccn3)no2)cc1[N+](=O)[O-] | 1.58 µM [rising, full curve, poor fit] |
